# This is a selection; strong and weak results do not stand in their true shares. At the low end of the ranking, values are background and their order means little.
# Protein sequences, listed by entry. Tags and fused reporters are not part of them. Lines headed by an entry give the natural chain unless they say otherwise; changes in a name come on top.
# UniProt Q9Y603: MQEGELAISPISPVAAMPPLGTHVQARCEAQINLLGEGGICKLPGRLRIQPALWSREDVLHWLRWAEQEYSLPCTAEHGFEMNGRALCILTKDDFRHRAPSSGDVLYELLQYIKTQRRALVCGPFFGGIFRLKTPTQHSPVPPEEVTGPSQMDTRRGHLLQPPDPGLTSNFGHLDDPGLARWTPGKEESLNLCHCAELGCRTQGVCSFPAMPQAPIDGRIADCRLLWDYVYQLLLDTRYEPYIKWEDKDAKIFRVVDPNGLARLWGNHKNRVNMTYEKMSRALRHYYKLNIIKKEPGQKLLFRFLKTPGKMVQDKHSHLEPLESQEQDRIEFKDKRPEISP
# UniProt P41212: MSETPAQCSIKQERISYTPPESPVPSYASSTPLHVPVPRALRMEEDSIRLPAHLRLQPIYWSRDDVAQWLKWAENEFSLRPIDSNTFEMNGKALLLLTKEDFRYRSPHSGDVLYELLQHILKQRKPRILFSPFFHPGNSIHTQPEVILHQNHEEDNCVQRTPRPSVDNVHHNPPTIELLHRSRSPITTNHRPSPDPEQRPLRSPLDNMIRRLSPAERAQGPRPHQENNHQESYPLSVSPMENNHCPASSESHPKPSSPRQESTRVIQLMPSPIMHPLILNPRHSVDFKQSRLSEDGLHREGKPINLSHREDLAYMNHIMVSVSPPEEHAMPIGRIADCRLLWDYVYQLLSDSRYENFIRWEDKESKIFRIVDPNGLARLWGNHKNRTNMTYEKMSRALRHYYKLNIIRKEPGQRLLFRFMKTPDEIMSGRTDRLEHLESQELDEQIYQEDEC
# Molecular target: T1, ELF3 (UniProt P78545)
# T1 sequence: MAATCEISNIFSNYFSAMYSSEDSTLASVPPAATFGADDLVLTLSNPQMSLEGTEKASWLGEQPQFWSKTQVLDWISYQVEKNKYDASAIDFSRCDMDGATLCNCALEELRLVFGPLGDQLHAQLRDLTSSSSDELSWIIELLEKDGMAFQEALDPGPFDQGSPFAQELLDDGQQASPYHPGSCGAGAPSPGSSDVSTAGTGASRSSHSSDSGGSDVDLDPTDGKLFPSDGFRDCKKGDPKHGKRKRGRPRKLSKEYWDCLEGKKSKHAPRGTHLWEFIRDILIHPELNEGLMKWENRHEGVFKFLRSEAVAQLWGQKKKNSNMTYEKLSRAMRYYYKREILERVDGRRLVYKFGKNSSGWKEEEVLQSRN
# Assay: DAPPL (digital affinity profiling via proximity ligation, sequencing)
# Details: 10 mM Tris-HCl pH 7.5, 50 mM NaCl, 1 mM DTT, 4% glycerol, room temperature, 30 min; GST-TFs on glutathione beads, 16-mer random dsDNA library, 0.1% …; high values mean tight binding; double strand, one strand shown; scale: fold enrichment (6-mer frequency, TF over GST control)
row,Sequence,binding signal
1,TTCACC,1.57
2,CTCTAG,1.1
3,GTTTGG,0.939
4,AAGTCC,1.3
5,CCTTTC,1.42
6,AATTCA,1.35
7,CACATT,1.43
8,CTCTTT,1.4
9,GATGGT,1.19
10,CGTTAA,1.27
11,TCCGGA,2.23
12,TGCTGA,1.09
13,CACTCG,0.932
14,TACTAG,0.899
15,AATTGC,1.5
16,TGCACG,1.26
17,CTTCCT,2.95
18,CATCCC,1.27
19,AAGAAA,1.23
20,CGTCTC,1.46
21,ATGAAT,1.08
22,TATGGC,1.29
23,GCCGAC,1
24,TCCTAC,1.16
25,TTAGTA,1.15

# Molecular target: ETV7 (UniProt Q9Y603)
# Assay: as above
# Details: 10 mM Tris-HCl pH 7.5, 50 mM NaCl, 1 mM DTT, 4% glycerol, room temperature, 30 min; GST-TFs on glutathione beads, 16-mer random dsDNA library, 0.1% …; high values mean tight binding; double strand, one strand shown; scale: fold enrichment (6-mer frequency, TF over GST control)
row,Sequence,binding signal
1,TTCCGT,1.6
2,TTTATG,1.32
3,AATAGC,1.19
4,CCTACT,1.35
5,CCTGAT,1.29
6,TACGTA,1.15
7,TCGTTC,1.15
8,CGGCTT,0.977
9,GGATCC,0.907
10,AATAGA,1.17
11,CACACT,1.14
12,CTTAGA,1.07
13,GTTTAC,1.22
14,GCATTC,0.976

# Given as tab-separated lines: part of the list above.
row	Sequence	binding signal
2	TTTATG	1.32
3	AATAGC	1.19
4	CCTACT	1.35
5	CCTGAT	1.29

# Molecular target: ETV6 (UniProt P41212)
# Assay: as above
# Details: 10 mM Tris-HCl pH 7.5, 50 mM NaCl, 1 mM DTT, 4% glycerol, room temperature, 30 min; GST-TFs on glutathione beads, 16-mer random dsDNA library, 0.1% …; high values mean tight binding; double strand, one strand shown; scale: fold enrichment (6-mer frequency, TF over GST control)
row,Sequence,binding signal
1,TTCACC,1.35
2,CTCTAG,1.34
3,GTTTGG,0.966
4,AAGTCC,1.2
5,CCTTTC,1.62
6,AATTCA,1.23
7,CACATT,1.15
8,CTCTTT,1.4
9,GATGGT,1.1
10,CGTTAA,1.16
11,TCCGGA,2.7
12,TGCTGA,1.01
13,CACTCG,1.1
14,TACTAG,0.974
15,AATTGC,1.43
16,TGCACG,1.06
17,CTTCCT,3.81
18,CATCCC,1.24
19,AAGAAA,1.22
20,CGTCTC,1.46
21,ATGAAT,1.15
22,TATGGC,1.29
23,GCCGAC,1.08
24,TCCTAC,1.47
25,TTAGTA,1.12

# Reference: paper PMC7862700
